The other results are listed elsewhere or left out. Shown are side measurements of this screen, not its main read-out; they come without a call. Compounds called inactive in the main read-out are mostly missing here. The note in brackets gives the kind of curve behind each potency; many fits are weak.
Experiment: qHTS Assay to Find Inhibitors of Chronic Active B-Cell Receptor Signaling
Settings: ABC-DLBCL IkBa-CBG/CBR reporter, luminescence ratio (green luciferase fused to IkBa over red control in TMD8 lymphoma cells), 4 h
Method in brief: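 TMD8 human ABC-DLBCL cells with doxycycline-inducible IκBα–green luciferase fusion and unfused red luciferase, in 0.5% FBS medium; compounds up to 46 uM, 4 h at 37C. Green/red luminescence ratio, filter-overlap corrected, fitted to concentration-response curves.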

[1] = measured here: CBR red luminescence, cell number
[2] = measured here: IkBa-CBG green luminescence

SMILES | AC50 [1] | AC50 [2]
CSc1nc(N)nc(SCC(=O)C(C)(C)C)c1C#N | 6.51 µM [rising, single point] | –
COc1cc2c(cc1OC)C1C(C(=O)Nc3ccccc3N3CCN(C)CC3)c3ccccc3C(=O)N1CC2 (configuration not stated) | 35.5 µM [falling, partial curve, poor fit] | –
S=c1[nH]c(-c2ccc(Br)cc2)cn1CCc1ccccc1 | 0.447 µM [rising, full curve] | –
Cc1ccnc(NC(=O)c2cnc(Cl)c(Cl)c2)c1 | 12.6 µM [falling, single point] | 8.91 µM [rising, partial curve, poor fit]
COc1ccc(C(=O)NC(=S)NNC(=O)c2ccccc2O)cc1 | 10 µM [falling, partial curve, poor fit] | –
CC1CCN(C(=O)CS(=O)(=O)Cc2ccccc2)CC1 | 0.891 µM [rising, full curve, poor fit] | –
CC1=CC(=O)C=C(C)C1=NOc1ccc([N+](=O)[O-])cc1 | 6.31 µM [rising, partial curve] | –
O=C(NCCc1ccccc1)c1nc2ncccn2n1 | 4.61 µM [falling, partial curve, poor fit] | –
Cc1ccc(C)c(NC(=O)CSc2n[nH]c(-c3ccncc3)n2)c1 | 18.4 µM [rising, partial curve, poor fit] | –
CN(C)c1ccc(NC(=S)c2ccccn2)cc1 | 6.51 µM [falling, partial curve] | –
Brc1ccc2ncnc(NCc3cccnc3)c2c1 | 3.55 µM [rising, partial curve, poor fit] | –
COc1ccc(NC(=O)CSc2nc3sc(C)cc3c(=O)n2C)cc1 | 0.0891 µM [rising, full curve, poor fit] | –
Cc1c(NC(=O)C2(c3ccc(Cl)cc3)CCCC2)c(=O)n(-c2ccccc2)n1C | 14.6 µM [rising, partial curve, poor fit] | –
COc1ccc(-c2nnc(SCC(=O)c3ccc(O)cc3O)o2)cc1 | 5.01 µM [falling, partial curve] | –
COc1cc(NC(=O)c2cccc([N+](=O)[O-])c2)ccc1NC(=O)c1ccco1 | 2.82 µM [rising, partial curve, poor fit] | –
O=C(O)/C=C/C(=O)Nc1ccc(C2(c3ccc(NC(=O)/C=C/C(=O)O)cc3)c3ccccc3-c3ccccc32)cc1 | – | 22.4 µM [rising, partial curve, poor fit]
CCOC(=O)Cc1csc(NC(=O)/C=C/c2ccc(Br)o2)n1 | 3.55 µM [falling, partial curve] | –
COCCN(Cc1cn(C)nc1-c1ccc(Oc2ccccc2)cc1)C(C)C | 7.08 µM [rising, partial curve] | –
O=C(COC(=O)c1cc(S(=O)(=O)NCc2ccccc2)ccc1O)c1cc2ccccc2o1 | 20 µM [falling, single point] | –
COc1ccc(C(=O)CSc2nc3[nH]ncc3c(=O)[nH]2)cc1 | 11.2 µM [falling, partial curve, poor fit] | –
CN(Cc1ccccc1)C(=O)CSc1nc2ccccc2c(=O)n1Cc1ccco1 | 20 µM [falling, partial curve, poor fit] | –

Part of the list above in order of molar mass, ascending.
SMILES | AC50 [1] | AC50 [2]
COc1ccc(C(=O)CSc2nc3[nH]ncc3c(=O)[nH]2)cc1 | 11.2 µM [falling, partial curve, poor fit] | –
Cc1ccc(C)c(NC(=O)CSc2n[nH]c(-c3ccncc3)n2)c1 | 18.4 µM [rising, partial curve, poor fit] | –
O=C(COC(=O)c1cc(S(=O)(=O)NCc2ccccc2)ccc1O)c1cc2ccccc2o1 | 20 µM [falling, single point] | –

Remaining list, next part.

SMILES | AC50 [1] | AC50 [2]
CC(=O)NN1C(=O)/C(=C/c2ccc(Br)o2)SC1=S | 2.91 µM [falling, full curve, poor fit] | –
O=C(CC(=O)c1ccccc1)Nc1ccccn1 | 14.1 µM [falling, partial curve] | –
Cc1ccc(O)c(NC(=O)c2cc([N+](=O)[O-])ccc2Cl)c1 | 15.8 µM [falling, single point] | –
O=c1sc2ccccc2n1CCCOc1ccccc1 | 3.16 µM [rising, partial curve] | –
O=C(Nc1ccc(O)c(C(=O)O)c1)c1cccc(NC(=O)c2ccco2)c1 | 15.8 µM [falling, single point] | –
CC1Sc2ccc(C(=O)Nc3ncccc3O)cc2NC1=O (configuration not stated) | 3.26 µM [falling, partial curve] | –
O=C(Nc1c(C(=O)O)[nH]c2ccccc12)c1cccc(C(F)(F)F)c1 | 35.5 µM [rising, single point] | –
COC(C[C@@H]1O[C@@H]1[C@H](O)COCc1ccccc1)OC | 29.1 µM [rising, single point] | –
O=C(Cn1cnc([N+](=O)[O-])c1)Nc1cc(Oc2ccc(Cl)cc2Cl)cc([N+](=O)[O-])c1 | 29.1 µM [falling, single point] | 23.1 µM [rising, partial curve, poor fit]
O=C(Nc1nccs1)C1CCCN(S(=O)(=O)c2cccnc2)C1 (configuration not stated) | 1.46 µM [falling, full curve] | –
Cc1ccc(-c2nnc(N(C)C(=O)c3cccnc3)s2)cc1 | 1.12 µM [rising, full curve, poor fit] | –
CCOC(=O)/C=C(\C)N1N=C(c2ccccc2)CC1c1ccccc1 (configuration not stated) | 0.447 µM [rising, partial curve, poor fit] | –
COc1ccc(C2/C=C\CN(S(=O)(=O)c3ccc(C)cc3)[C@H](Cc3ccccc3)C(=O)N2Cc2ccc(F)cc2)cc1 (some centres not stated) | 12.6 µM [falling, single point] | –
CCN1C(=O)N/C(=C/c2ccc(C)o2)C1=O | 29.1 µM [falling, single point] | 20.6 µM [falling, single point]
COC(=O)C1=CN(Cc2ccccc2)C=C(C(=O)OC)C1c1cc(F)ccc1F | 15.8 µM [falling, single point] | –
C=CCC(Nc1ccccc1)C12C=CC(O1)C(C(=O)OC)=C2C(=O)OC (configuration not stated) | 2.31 µM [falling, full curve] | –
COc1ccc(NC(=O)CC(=O)Nc2ccc(OC)cc2OC)c(OC)c1 | 11.6 µM [falling, partial curve, poor fit] | –
O=C(Nc1cccc(-c2nc3ccccc3s2)c1)c1cc(=O)c2ccccc2o1 | 14.6 µM [falling, partial curve] | –
CCNC(=O)CC1SC(=Nc2ccc(Cl)cc2)N(CC)C1=O (configuration not stated) | 0.58 µM [rising, full curve, poor fit] | –
Cc1cc(C)cc(NC(=O)[C@H](Cc2c[nH]c3ccccc23)NC(=O)[C@@H]2Cc3ccccc3CN2)c1 | 10 µM [falling, partial curve, poor fit] | –
c1ccc2c(-n3cccn3)cccc2c1 | 35.5 µM [rising, single point] | –

SMILES | AC50 [1] | AC50 [2]
O=C1Nc2ccc(Br)cc2/C1=C/C(=O)c1ccc2c(c1)OCO2 | 4.47 µM [falling, partial curve] | 14.1 µM [rising, partial curve, poor fit]
N#Cc1c(C(F)(F)F)cc(-c2cccs2)nc1SCC(=O)O | 7.94 µM [falling, single point] | 14.1 µM [rising, single point]
Brc1ccc(-c2nc(-c3ccncc3)no2)cc1 | 8.91 µM [rising, partial curve] | –
COc1ccc(NC(=O)C2CCCN(S(=O)(=O)c3cccc4nonc34)C2)c(OC)c1 (configuration not stated) | 6.51 µM [rising, full curve, poor fit] | –
O=C(Nc1ccc(N2CCCCC2)cc1)c1ccc2c(c1)OCCO2 | 7.31 µM [falling, partial curve, poor fit] | –
CC1=Nc2ccc(C)cc2/C1=C/c1c(N)n2c(S(=O)(=O)C(C)C)nsc2nc1=O | 7.94 µM [falling, partial curve, poor fit] | –
COc1ccc(CCNC(=O)c2ccn[nH]2)cc1OC | 35.5 µM [falling, single point] | –
Cc1cc(C(=O)COC(=O)c2n[nH]c(=O)c3ccccc23)c(C)n1C | 29.1 µM [rising, single point] | –
Cc1cc(N2CCOCC2)nc2ccc(NC(=S)NCc3ccc4c(c3)OCO4)cc12 | 35.5 µM [falling, single point] | –
CC1=NN(c2cccc(C(=O)O)c2)C(=O)/C1=C\C=C/c1ccccc1 | 6.31 µM [falling, single point] | –
O=C(N/N=C/c1cc([N+](=O)[O-])ccc1O)C1C2CCCCC21 (configuration not stated) | 11.2 µM [rising, partial curve, poor fit] | –
CCNC(=S)N/N=C/c1ccc(C(=O)O)cc1 | 35.5 µM [falling, single point] | –
Cc1ccc(-n2ncc3c(N4CCN(Cc5ccccc5)CC4)ncnc32)cc1C | 4.47 µM [falling, partial curve, poor fit] | 3.16 µM [rising, partial curve, poor fit]
COc1cc2c(cc1OC)CN(c1ccc([N+](=O)[O-])cc1Cl)CC2 | 7.31 µM [rising, partial curve, poor fit] | –
O=C(N/C(=C/c1ccc(Br)cc1)C(=O)N1CCCC1)c1ccccc1F | 18.4 µM [rising, partial curve, poor fit] | –
COc1cc2c(cc1NC(=O)c1cc(-c3ccncc3)nc3ccc(C)cc13)oc1ccccc12 | 29.1 µM [rising, single point] | –
CCOCCCNC(=O)CCC(=O)NNc1nc2ccccc2c2nc(C)nn12 | 35.5 µM [rising, partial curve, poor fit] | –
Cc1ccc(C(=O)N/N=C/c2c[nH]c3ccccc23)o1 | 15.8 µM [falling, single point] | –
O=C(CN1C(=O)NC2(CCc3ccccc32)C1=O)Nc1ccccc1C(F)(F)F (configuration not stated) | 0.411 µM [falling, partial curve, poor fit] | –

Among those listed so far, these contain an aryl methoxy group.
SMILES | AC50 [1] | AC50 [2]
COc1cc2c(cc1OC)C1C(C(=O)Nc3ccccc3N3CCN(C)CC3)c3ccccc3C(=O)N1CC2 (configuration not stated) | 35.5 µM [falling, partial curve, poor fit] | –
COc1ccc(C(=O)NC(=S)NNC(=O)c2ccccc2O)cc1 | 10 µM [falling, partial curve, poor fit] | –
COc1ccc(NC(=O)CSc2nc3sc(C)cc3c(=O)n2C)cc1 | 0.0891 µM [rising, full curve, poor fit] | –
COc1ccc(-c2nnc(SCC(=O)c3ccc(O)cc3O)o2)cc1 | 5.01 µM [falling, partial curve] | –
COc1cc(NC(=O)c2cccc([N+](=O)[O-])c2)ccc1NC(=O)c1ccco1 | 2.82 µM [rising, partial curve, poor fit] | –
COc1ccc(C(=O)CSc2nc3[nH]ncc3c(=O)[nH]2)cc1 | 11.2 µM [falling, partial curve, poor fit] | –
COc1ccc(C2/C=C\CN(S(=O)(=O)c3ccc(C)cc3)[C@H](Cc3ccccc3)C(=O)N2Cc2ccc(F)cc2)cc1 (some centres not stated) | 12.6 µM [falling, single point] | –
COc1ccc(NC(=O)CC(=O)Nc2ccc(OC)cc2OC)c(OC)c1 | 11.6 µM [falling, partial curve, poor fit] | –
COc1ccc(NC(=O)C2CCCN(S(=O)(=O)c3cccc4nonc34)C2)c(OC)c1 (configuration not stated) | 6.51 µM [rising, full curve, poor fit] | –
COc1ccc(CCNC(=O)c2ccn[nH]2)cc1OC | 35.5 µM [falling, single point] | –
COc1cc2c(cc1OC)CN(c1ccc([N+](=O)[O-])cc1Cl)CC2 | 7.31 µM [rising, partial curve, poor fit] | –
COc1cc2c(cc1NC(=O)c1cc(-c3ccncc3)nc3ccc(C)cc13)oc1ccccc12 | 29.1 µM [rising, single point] | –

Reference: PubChem BioAssay AID493014 (National Center for Advancing Translational Sciences (NCATS), 2011)
